According to article PMC5703730:
Results are given in words; binding and its absence hold for the method and conditions named. Binding seen in cells or lysates may run through a third protein. Some binding calls cover weakened binding; strength is not graded here.

Protein sequences, listed by entry. Tags and fused reporters are not part of them.
UniProt Q95V55: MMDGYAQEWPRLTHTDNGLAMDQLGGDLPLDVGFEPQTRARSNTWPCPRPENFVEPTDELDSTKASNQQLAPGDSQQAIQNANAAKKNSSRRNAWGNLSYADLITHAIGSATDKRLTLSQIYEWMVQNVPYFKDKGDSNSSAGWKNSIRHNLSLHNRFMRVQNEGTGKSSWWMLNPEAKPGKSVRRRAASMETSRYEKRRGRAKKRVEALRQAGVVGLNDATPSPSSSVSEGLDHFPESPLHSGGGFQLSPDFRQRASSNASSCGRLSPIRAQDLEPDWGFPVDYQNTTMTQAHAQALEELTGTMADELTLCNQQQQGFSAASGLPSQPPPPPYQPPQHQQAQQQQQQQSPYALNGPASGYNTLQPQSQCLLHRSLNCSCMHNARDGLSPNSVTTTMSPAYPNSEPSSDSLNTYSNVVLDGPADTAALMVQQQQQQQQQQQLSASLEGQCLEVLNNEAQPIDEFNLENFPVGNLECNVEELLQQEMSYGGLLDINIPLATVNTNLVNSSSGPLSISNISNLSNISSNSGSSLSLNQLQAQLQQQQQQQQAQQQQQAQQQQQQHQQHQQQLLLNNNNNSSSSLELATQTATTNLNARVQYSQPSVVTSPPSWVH

Columns and labels:
[1] = molecular target: Drosophila FOXO (dFOXO), endogenous (Drosophila (endogenous in Kc167 cells)) (UniProt Q95V55); assay: co-IP; endogenous proteins, cytoplasmic extracts of Kc167 cells; anti-dFOXO antibodies used in pull-down, Dynabeads Protein A; western blot for Kr-h1; rabbit IgG as negative control
[2] = molecular target: Drosophila FOXO (dFOXO), endogenous (Drosophila (endogenous in Kc167 cells)) (UniProt Q95V55); assay: co-IP; endogenous proteins, nuclear extracts of Kc167 cells; anti-dFOXO antibodies used in pull-down, Dynabeads Protein A; western blot for Kr-h1; rabbit IgG as negative control

B1: Kruppel homolog 1 (Kr-h1), endogenous (protein, UniProt P08155 1-845)
chain: MTESKNDTKSWAPKQIWIKDVLKKSGTELLDISKSPAKAVAVKKSPAKDSATTKMVYYSANQLLIKTEQSSQAQFCLQVPPPLTATTTSVGLGVPPSGGQQEHFELLQTPQQRQMQLQLQDQHQQEQQQFVSYQLAIQQHQKQQQQQQHESITNAAPTAAPSAQRIKTEPVGGFPASAAVVSQVRKPSASKPQFKCDQCGMTFGSKSAHTSHTKSHSKNQDLSLNGASGAGVAAPVSTAAIELNDAGLPVGIPKSPTIKPLANVAAGADPYQCNVCQKTFAVPARLIRHYRTHTGERPFECEFCHKLFSVKENLQVHRRIHTKERPYKCDVCGRAFEHSGKLHRHMRIHTGERPHKCSVCEKTFIQSGQLVIHMRTHTGEKPYKCPEPGCGKGFTCSKQLKVHSRTHTGEKPYHCDICFRDFGYNHVLKLHRVQHYGSKCYKCTICDETFKNKKEMEAHIKGHANEVPDDEAEAAAASAAASTSAGSSAGSPSLQGVSSNSESSNHSPPSSPPATKKPRQARQPRVSKTVAATLSIPTSSPLSPSSLSSTYSPSASSMASPPPTSAHYLPVQMEADALSRDSGVSSAQPAHSTYADEEPTDLSMQQVQGQLPESTVDYYQAPPSLLELQPQPAGLTINPALLEAASIARRHDDNDDQVQDEDVHAAAWQMMQLCRGHGSLPPTEQPAPSHQPQVPTLHVSDLAANYDDTHEATVLIEHFKRGDLARHGLHKGYAPVPKYESALPNPDVVRRVEAAIGLRSSTESPERSSSPESDSLMMADRNVMTLPLRKRKHYMNKGDDGQVDSEKASGDGTSAAGGAASVGAGDGPGSKVMRMSSVIQFAKAS
binding [1]: no binding (condition: cytoplasmic extracts)
binding [2]: binds
